These are yes or no findings as the source states them, for the method shown. In cells and extracts the contact can be indirect. Here binding means that the protein was enriched with, or labelled near, the bait; the list need not be complete.
molecular target: Flag-HA-FANCD2 (stably expressed in HeLa cells) (human) (UniProt Q9BXW9); assay: affinity purification with mass spectrometry; Flag-HA-FANCD2 purified in two steps (M2 anti-FLAG agarose, then anti-HA Sepharose) from nuclear extract of HeLa S3 cells treated with 160 ng/ml mitomycin C overnight; nuclei treated with Benzonase and 1% formaldehyde for 3 min; TCA precipitate analysed by silver stain and MS/MS

Sequences of proteins named here, by UniProt entry; tags and fusion partners are left off.
UniProt Q9BXW9: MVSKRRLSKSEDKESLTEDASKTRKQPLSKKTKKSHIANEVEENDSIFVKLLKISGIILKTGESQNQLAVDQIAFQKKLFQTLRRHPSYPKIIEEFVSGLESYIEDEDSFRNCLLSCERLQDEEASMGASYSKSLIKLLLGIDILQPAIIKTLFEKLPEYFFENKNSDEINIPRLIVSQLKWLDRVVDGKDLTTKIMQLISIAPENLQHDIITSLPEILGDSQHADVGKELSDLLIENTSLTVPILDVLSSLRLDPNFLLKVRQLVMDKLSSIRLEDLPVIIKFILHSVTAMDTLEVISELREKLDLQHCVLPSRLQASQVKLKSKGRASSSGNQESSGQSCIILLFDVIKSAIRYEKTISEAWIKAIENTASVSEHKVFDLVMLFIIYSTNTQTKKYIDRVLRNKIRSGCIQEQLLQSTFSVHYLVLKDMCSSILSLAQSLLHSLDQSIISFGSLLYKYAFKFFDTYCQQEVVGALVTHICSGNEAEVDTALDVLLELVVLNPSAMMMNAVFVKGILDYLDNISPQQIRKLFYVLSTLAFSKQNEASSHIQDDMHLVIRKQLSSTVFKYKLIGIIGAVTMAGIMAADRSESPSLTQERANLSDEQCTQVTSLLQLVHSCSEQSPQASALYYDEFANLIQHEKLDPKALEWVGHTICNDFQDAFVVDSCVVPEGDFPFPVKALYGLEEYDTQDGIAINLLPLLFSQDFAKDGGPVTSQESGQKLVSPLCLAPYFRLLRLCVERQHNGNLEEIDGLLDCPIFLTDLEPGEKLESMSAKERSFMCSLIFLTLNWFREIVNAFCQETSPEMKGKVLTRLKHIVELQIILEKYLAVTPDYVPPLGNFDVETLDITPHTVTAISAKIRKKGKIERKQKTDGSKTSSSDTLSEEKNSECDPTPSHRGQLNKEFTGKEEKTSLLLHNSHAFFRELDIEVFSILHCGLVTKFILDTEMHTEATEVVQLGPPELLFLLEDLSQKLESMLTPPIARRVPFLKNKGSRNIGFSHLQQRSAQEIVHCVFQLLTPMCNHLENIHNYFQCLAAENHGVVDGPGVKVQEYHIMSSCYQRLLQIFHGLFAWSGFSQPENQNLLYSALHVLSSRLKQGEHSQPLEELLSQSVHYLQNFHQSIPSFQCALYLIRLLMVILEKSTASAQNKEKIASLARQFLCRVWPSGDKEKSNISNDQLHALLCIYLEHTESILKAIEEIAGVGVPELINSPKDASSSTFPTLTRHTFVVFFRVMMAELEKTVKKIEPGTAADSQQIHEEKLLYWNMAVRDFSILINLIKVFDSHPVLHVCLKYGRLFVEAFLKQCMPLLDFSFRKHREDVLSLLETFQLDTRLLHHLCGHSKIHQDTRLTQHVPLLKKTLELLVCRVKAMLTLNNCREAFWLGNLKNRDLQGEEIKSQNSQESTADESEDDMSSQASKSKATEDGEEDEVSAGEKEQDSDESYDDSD

Row | binding | Binder
1 | binds | PRIM2 (endogenous, HeLa) (protein, UniProt P49643 1-509) MEFSGRKWRKLRLAGDQRNASYPHCLQFYLQPPSENISLIEFENLAIDRVKLLKSVENLGVSYVKGTEQYQSKLESELRKLKFSYRENLEDEYEPRRRDHISHFILRLAYCQSEELRRWFIQQEMDLLRFRFSILPKDKIQDFLKDSQLQFEAISDEEKTLREQEIVASSPSLSGLKLGFESIYKIPFADALDLFRGRKVYLEDGFAYVPLKDIVAIILNEFRAKLSKALALTARSLPAVQSDERLQPLLNHLSHSYTGQDYSTQGNVGKISLDQIDLLSTKSFPPCMRQLHKALRENHHLRHGGRMQYGLFLKGIGLTLEQALQFWKQEFIKGKMDPDKFDKGYSYNIRHSFGKEGKRTDYTPFSCLKIILSNPPSQGDYHGCPFRHSDPELLKQKLQSYKISPGGISQILDLVKGTHYQVACQKYFEMIHNVDDCGFSLNHPNQFFCESQRILNGGKDIKKEPIQPETPQPKPSVQKTKDASSALASLNSSLEMDMEGLEDYFSEDS
2 | binds | UHRF1 (endogenous, HeLa) (protein, UniProt Q96T88 1-793) MWIQVRTMDGRQTHTVDSLSRLTKVEELRRKIQELFHVEPGLQRLFYRGKQMEDGHTLFDYEVRLNDTIQLLVRQSLVLPHSTKERDSELSDTDSGCCLGQSESDKSSTHGEAAAETDSRPADEDMWDETELGLYKVNEYVDARDTNMGAWFEAQVVRVTRKAPSRDEPCSSTSRPALEEDVIYHVKYDDYPENGVVQMNSRDVRARARTIIKWQDLEVGQVVMLNYNPDNPKERGFWYDAEISRKRETRTARELYANVVLGDDSLNDCRIIFVDEVFKIERPGEGSPMVDNPMRRKSGPSCKHCKDDVNRLCRVCACHLCGGRQDPDKQLMCDECDMAFHIYCLDPPLSSVPSEDEWYCPECRNDASEVVLAGERLRESKKKAKMASATSSSQRDWGKGMACVGRTKECTIVPSNHYGPIPGIPVGTMWRFRVQVSESGVHRPHVAGIHGRSNDGAYSLVLAGGYEDDVDHGNFFTYTGSGGRDLSGNKRTAEQSCDQKLTNTNRALALNCFAPINDQEGAEAKDWRSGKPVRVVRNVKGGKNSKYAPAEGNRYDGIYKVVKYWPEKGKSGFLVWRYLLRRDDDEPGPWTKEGKDRIKKLGLTMQYPEGYLEALANREREKENSKREEEEQQEGGFASPRTGKGKWKRKSAGGGPSRAGSPRRTSKKTKVEPYSLTAQQSSLIREDKSNAKLWNEVLASLKDRPASGSPFQLFLSKVEETFQCICCQELVFRPITTVCQHNVCKDCLDRSFRAQVFSCPACRYDLGRSYAMQVNQPLQTVLNQLFPGYGNGR

The remaining lines, values behind:

Row | Binder | binding
3 | FANCA (endogenous, HeLa) (protein, UniProt O15360 1-1455) MSDSWVPNSASGQDPGGRRRAWAELLAGRVKREKYNPERAQKLKESAVRLLRSHQDLNALLLEVEGPLCKKLSLSKVIDCDSSEAYANHSSSFIGSALQDQASRLGVPVGILSAGMVASSVGQICTAPAETSHPVLLTVEQRKKLSSLLEFAQYLLAHSMFSRLSFCQELWKIQSSLLLEAVWHLHVQGIVSLQELLESHPDMHAVGSWLFRNLCCLCEQMEASCQHADVARAMLSDFVQMFVLRGFQKNSDLRRTVEPEKMPQVTVDVLQRMLIFALDALAAGVQEESSTHKIVRCWFGVFSGHTLGSVISTDPLKRFFSHTLTQILTHSPVLKASDAVQMQREWSFARTHPLLTSLYRRLFVMLSAEELVGHLQEVLETQEVHWQRVLSFVSALVVCFPEAQQLLEDWVARLMAQAFESCQLDSMVTAFLVVRQAALEGPSAFLSYADWFKASFGSTRGYHGCSKKALVFLFTFLSELVPFESPRYLQVHILHPPLVPGKYRSLLTDYISLAKTRLADLKVSIENMGLYEDLSSAGDITEPHSQALQDVEKAIMVFEHTGNIPVTVMEASIFRRPYYVSHFLPALLTPRVLPKVPDSRVAFIESLKRADKIPPSLYSTYCQACSAAEEKPEDAALGVRAEPNSAEEPLGQLTAALGELRASMTDPSQRDVISAQVAVISERLRAVLGHNEDDSSVEISKIQLSINTPRLEPREHMAVDLLLTSFCQNLMAASSVAPPERQGPWAALFVRTMCGRVLPAVLTRLCQLLRHQGPSLSAPHVLGLAALAVHLGESRSALPEVDVGPPAPGAGLPVPALFDSLLTCRTRDSLFFCLKFCTAAISYSLCKFSSQSRDTLCSCLSPGLIKKFQFLMFRLFSEARQPLSEEDVASLSWRPLHLPSADWQRAALSLWTHRTFREVLKEEDVHLTYQDWLHLELEIQPEADALSDTERQDFHQWAIHEHFLPESSASGGCDGDLQAACTILVNALMDFHQSSRSYDHSENSDLVFGGRTGNEDIISRLQEMVADLELQQDLIVPLGHTPSQEHFLFEIFRRRLQALTSGWSVAASLQRQRELLMYKRILLRLPSSVLCGSSFQAEQPITARCEQFFHLVNSEMRNFCSHGGALTQDITAHFFRGLLNACLRSRDPSLMVDFILAKCQTKCPLILTSALVWWPSLEPVLLCRWRRHCQSPLPRELQKLQEGRQFASDFLSPEAASPAPNPDWLSAAALHFAIQQVREENIRKQLKKLDCEREELLVFLFFFSLMGLLSSHLTSNSTTDLPKAFHVCAAILECLEKRKISWLALFQLTESDLRLGRLLLRVAPDQHTRLLPFAFYSLLSYFHEDAAIREEAFLHVAVDMYLKLVQLFVAGDTSTVSPPAGRSLELKGQGNPVELITKARLFLLQLIPRCPKKSFSHVAELLADRGDCDPEVSAALQSRQQAAPDADLSQEPHLF | binds
4 | POLD3 (endogenous, HeLa) (protein, UniProt Q15054 1-466) MADQLYLENIDEFVTDQNKIVTYKWLSYTLGVHVNQAKQMLYDYVERKRKENSGAQLHVTYLVSGSLIQNGHSCHKVAVVREDKLEAVKSKLAVTASIHVYSIQKAMLKDSGPLFNTDYDILKSNLQNCSKFSAIQCAAAVPRAPAESSSSSKKFEQSHLHMSSETQANNELTTNGHGPPASKQVSQQPKGIMGMFASKAAAKTQETNKETKTEAKEVTNASAAGNKAPGKGNMMSNFFGKAAMNKFKVNLDSEQAVKEEKIVEQPTVSVTEPKLATPAGLKKSSKKAEPVKVLQKEKKRGKRVALSDDETKETENMRKKRRRIKLPESDSSEDEVFPDSPGAYEAESPSPPPPPSPPLEPVPKTEPEPPSVKSSSGENKRKRKRVLKSKTYLDGEGCIVTEKVYESESCTDSEEELNMKTSSVHRPPAMTVKKEPREERKGPKKGTAALGKANRQVSITGFFQRK | binds
